Measured values reported in PubChem BioAssay AID1347075 (National Center for Advancing Translational Sciences (NCATS), 2019).
Where “and” joins values, the source holds several entries; their conditions need not be identical. Equal values may be shown once. The campaign covered roughly 400,000 compounds. About 5,500 (1.4%) were called active. The inconclusive results got no clear call from the source; some entries with a clear call stand among them for comparison. Calls follow the shape of the dose curve; as a rule, active = well fitted cell-killing curve with a large enough effect; inconclusive = small, poorly fitted or top-dose-only effect, or effect the other way; inactive = flat fitted curve, though single readings scatter. A potency beside an inconclusive call is a rough fit, not a confirmed value.

Assay: qHTS assay for MDR1-selective chemotherapeutics: Primary screen using the parental adenocarcinoma cell KB-3-1; also: nearly all actives have a fitted effect of over 60% in size
Conditions: KB-3-1 viability, CellTiter-Glo ATP luminescence, 72 h; series mostly up to 46.1 µM
Outline: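 Cytotoxicity in the drug-sensitive parental line KB-3-1 was scored as loss of CellTiter-Glo luminescence following 72 h incubation with compound. Values come from curve fitting of normalized concentration-response data.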
Potency is read from the fitted curve at half-maximal effect.

SMILES | Potency
CC(=O)O[C@H]1C(=O)[C@@]2(C)C([C@H](OC(=O)c3ccccc3)[C@]3(O)C[C@H](OC(=O)[C@H](O)[C@@H](NC(=O)Cc4ccccc4)c4ccccc4)C(C)=C1C3(C)C)[C@]1(OC(C)=O)CO[C@@H]1C[C@@H]2O (some centres not stated) | active: 0.0073 µM
COc1ccc(-n2nnnc2C(c2cc3ccccc3o2)N2CCC(n3c(=O)[nH]c4ccccc43)CC2)cc1 (configuration not stated) | inconclusive: 29.1 µM [cytotoxic, single point]
Cc1ncoc1C(=O)NCC1=C(c2ccc(S(C)(=O)=O)cc2)C[C@@H]2CC[C@H]1N2Cc1ccco1 | inconclusive: 13 µM [rising, partial curve]
CCOC(=O)c1cc2c(cn1)[C@@H](CCO)NC2 | inconclusive: 0.0052 µM [rising, full curve]
CCC1(C)CC(CCNCc2ccc(N(C)C)cc2)(c2ccc(F)cc2)CCO1 (configuration not stated) | inconclusive: 29.1 µM [cytotoxic, single point]
O=C1NC(=O)C(CCc2ccncc2)(Cc2cccc(Cl)c2Cl)C(=O)N1c1ccc(Br)cc1 (configuration not stated) | active: 5.17 µM
Cc1ccc(OC(=O)N(C)C[C@@H]2OCc3cnnn3CCCC(=O)N([C@H](C)CO)C[C@H]2C)cc1 | inconclusive: 32.6 µM [rising, single point]
CN1C(=O)C(=Cc2sc(=O)n(-c3ccccc3)c2N(C)C)C(=O)N(C)C1=O | inconclusive: 29.1 µM [cytotoxic, single point]
CCOC(=O)CN1C(=O)C2(C(C#N)=C(N)Oc3ccccc32)C(C(=O)OC)=C1C (configuration not stated) | inactive
COc1ccc(CN2Cc3cnnn3-c3ccccc3C2C)cc1 (configuration not stated) | active: 13 µM
O=c1c2ccccc2nc(/C=C/c2ccccc2)n1-c1ccccc1F | inactive
Cc1[nH]n(-c2ccccc2)c(=O)c1C(c1ccc([N+](=O)[O-])cc1)c1c(C)[nH]n(-c2ccccc2)c1=O | inconclusive: 9.2 µM [cytotoxic, partial curve]
Cc1cccc(N2CCc3c2nc2ccccc2c3N)c1 | inconclusive: 20.6 µM [cytotoxic, single point] and inconclusive: 29.1 µM [cytotoxic, single point]
CN1CCN(c2cccc3c2C(=O)c2ccccc2C3=O)CC1 | inconclusive: 3.66 µM [cytotoxic, partial curve]
N/C(=N\[N+](=O)[O-])N1CCN(C(=O)c2ccccn2)CC1 | inactive
CCCCn1c(NC(=O)c2ccco2)c(C(=O)OCC)c2nc3ccccc3nc21 | inactive
Cc1cccc(CCNCc2cc3ccc(C)cc3[nH]c2=O)c1 | inactive

A stretch taken from the entries so far, for reference:
SMILES | Potency
CCOC(=O)CN1C(=O)C2(C(C#N)=C(N)Oc3ccccc32)C(C(=O)OC)=C1C (configuration not stated) | inactive
COc1ccc(CN2Cc3cnnn3-c3ccccc3C2C)cc1 (configuration not stated) | active: 13 µM
